Library screening results

From ChEMBL document CHEMBL3988442, “University of Dundee, Small-Polar-MMV Screening Library” (2021).

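Viability assay of Plasmodium falciparum sporozoites; the read-out is not stated. The concentration is filed as 10 mM, unlikely as a test dose, so the dose is not known. Higher reads as lower viability (inferred: compounds with an IC50 in retests scored well above the rest). Strong results were mostly tested again. Of about 34,000 compounds tested this way, about 280 (0.84%) reached 50% or more in at least one test.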

The filed quantity is “Percent Effect” (%).
How 0% and 100% were set is not recorded. Most values in the screen are low, and negative values occur.
The compounds are a random part of those screened.
Two or more numbers in one place are separate tests of the same structure; such repeats can differ widely.

| structure | effect |
|---|---|
| `CCc1nccn1CC(=O)Nc1cccc(N2CCCC2)c1` | 1.768 |
| `CCCC(=O)N1CCCCC1c1nccc(C)n1` (stereo unspecified) | -0.7508 |
| `CCc1cc(N2CCC(NCc3ccc(C)o3)CC2)ncn1` | -12.35 |
| `[H][C@@]12C[C@@H](OCc3ccccn3)CN1CCN(C(=O)c1ccsc1)C2` | 1.117 |
| `[H][C@@]12CCN(c3ncccn3)[C@@]1([H])CCN2C(=O)NC1CC1` | -3.59 |
| `CCS(=O)(=O)N1CCCn2cnc(COc3cccnc3)c2C1.O=C(O)C(F)(F)F` | -6.239 |
| `O=C(O)C(F)(F)F.[H][C@@]12CN(Cc3ccoc3)CCO[C@]1([H])CN(C(=O)Cc1ccsc1)C2` | -16.23 |
| `c1ccc(OCc2cscn2)c(CNC2CCc3ncnn3C2)c1` (stereo unspecified) | -3.354 |
| `O=C(O)C(F)(F)F.[H][C@]12CN(Cc3ccccc3Cl)C[C@@]1([H])OCCN(C(C)=O)C2` | -5.429 |
| `CCCc1cc(C(=O)N(C)Cc2cnn(-c3cccc(OC)c3)c2)[nH]n1` | -25.17 & -20.39 |
| `Cc1cccc(CCC(=O)N2CCCC(c3cc(C(N)=O)[nH]n3)C2)c1` (stereo unspecified) | 1.28 |
| `CCCC1(CO)CCCN(c2ncccc2F)C1` (stereo unspecified) | -1.059 |
| `CC(C)(C)OC(=O)N[C@@H]1C[C@@H](O)CN(C(=O)c2ccc(F)cc2)C[C@H]1O` | 18.53 |
| `O=C(O)C(F)(F)F.O=C(O)C(F)(F)F.c1ccc(NCc2cnc3n2CCN(CC2CCOC2)CC3)nc1` (stereo unspecified) | -7.491 |
| `CN(Cc1ccncc1)C1CC2(CCN(Cc3ccccn3)CC2)C1` | -12.29 |
| `CCOc1ccc(C(=O)N2CCCC2c2cnn(C)c2)cn1` (stereo unspecified) | 2.866 |
| `CCCn1cc(-c2cc(-c3ccoc3)c(C#N)c(N)n2)c(C)n1` | 1.692 |
| `COCc1ccc(C(=O)N2CCC(c3cc4ncc(C)nc4[nH]3)C2)cc1` (stereo unspecified) | 19.6 |
| `COc1ncccc1NC(=O)C1CCN(S(C)(=O)=O)CC1` | -4.742 |
| `O=C(O)C(F)(F)F.[H][C@@]12CCN(S(C)(=O)=O)[C@]1([H])CC[C@@H](C(=O)NCCc1ccncc1)O2` | 7.035 |
| `CCN(CC)CCn1ccnc1-c1cccc(C#N)c1` | 11.28 |
| `Cn1cc(C2CCCN2C(=O)c2ccc(NC3CC3)nc2)cn1` (stereo unspecified) | -0.983 |
| `CCO[C@@H]1CCN(c2ccc(C)nn2)[C@@H]1Cc1cnn(C)c1` | 12.27 |
| `Cc1nc(CNC(=O)NCC(F)(F)F)oc1C` | -12.19 |
| `CCC1=NN2C(=N)/C(=C/c3cccc(Cl)c3)C(=O)N=C2S1` | 0.2176 |
| `Cc1cnn(CC2CCCCN2C(=O)c2ccccc2-n2cccn2)c1` (stereo unspecified) | 27.33 |
| `CC(NC(=O)NCCCn1cccn1)c1cccnc1` (stereo unspecified) | 2.146 |
| `Cn1nnc2c1CCN(Cc1ccccn1)C2COCc1ccccc1.O=C(O)C(F)(F)F.O=C(O)C(F)(F)F` (stereo unspecified) | 8.073 |
| `CCc1ccc(CN(C)Cc2cnc(S(=O)(=O)CC)n2CCOC)cc1` | -22.72 |
| `CSc1ccccc1C(C(=O)O)N(C)CC1CCOCC1` (stereo unspecified) | -18.94 |
| `CN(CC(=O)Nc1cccnc1)CC1CCCN1c1cccnn1` (stereo unspecified) | -10.21 |
| `Cc1ccccc1CN(CCN(C)C)Cc1ccccc1C(=O)O` | -30 |
| `CC(NC(=O)NCCCN1CCCC1=O)c1ccc(Cl)s1` (stereo unspecified) | -3.671 |
| `COc1c(C)cc(CNCc2ccnc(N3CCOCC3)c2)cc1C.Cl` | 7.18 |
| `CS(=O)(=O)NCC1CCCN(C(=O)c2ccco2)C1` (stereo unspecified) | 3.284 |
| `Cn1ccc(C(=O)N2CCN(CC(O)C(C)(C)C)CC2)cc1=O` (stereo unspecified) | -5.713 & -2.423 & -18.75 |
| `C[C@@H]1CN2C[C@H](O)CC2CN1Cc1ccncc1` (stereo partly specified) | -5.882 |
| `Cc1ccsc1CNC(=O)c1ccc(N2CCOC2=O)cc1` | -7.23 |
| `CS(=O)(=O)c1cncnc1C1CCCN(C(=O)NCc2ccccc2)C1` (stereo unspecified) | -10.37 |
| `COc1ccc(S(=O)(=O)NC(=O)COC2CCCCC2)cc1` | -23.1 |
| `Cc1cn[nH]c1C1CCCCN1C(=O)CCc1c(C)n[nH]c1C` (stereo unspecified) | 18.58 |
| `CSC(C)C(=O)N(C)C1CCN(c2ccc(Cl)cc2)CC1` (stereo unspecified) | -14.21 |
| `CN(Cc1cccnc1)CC1CNCc2nccn2C1` (stereo unspecified) | 1.684 |
| `CC1CCN(CCNC(=O)C2CCN(S(N)(=O)=O)CC2)CC1` | -6.943 |
| `CN(C)CCN1C2(CCN(Cc3nccs3)C2)c2ccccc2S1(=O)=O.O=C(O)C(F)(F)F.O=C(O)C(F)(F)F` (stereo unspecified) | 12.63 |
| `Cc1cnccc1N1CCCN(C(=O)CCCS(N)(=O)=O)CC1` | -12.63 |
| `CC[C@@H]1N(CC2CC2)CCC[C@]12CCC(=O)N2CCOC.O=C(O)C(F)(F)F` | 2.056 |
| `Cc1cc(O)nc(C2CCCN(CCO)C2)n1` (stereo unspecified) | -8.242 |
| `COc1ccccc1N1CCN(C(=O)CCn2ccnc2C)CC1(C)C` | -4.44 |
| `COc1ccc(C(NCc2cccc(C#N)c2)C2CC2)cc1` (stereo unspecified) | -2.632 & 10.93 |
| `c1cncc(OCc2noc3c2CN(Cc2ccoc2)CC3)c1` | 10.96 |
| `CNC(=O)C1(c2cnccn2)CCCN1C(=O)c1ccccc1` (stereo unspecified) | 1.047 |
| `CC(C)Oc1ccccc1C1CC(=O)Nc2c1cnn2C` (stereo unspecified) | -21.08 |
| `COc1ccc2c(c1)NC(C1CCNCC1)NS2(=O)=O` (stereo unspecified) | 3.875 |
| `CCCc1nc(CN2CCCC(Cn3cncn3)C2)no1` (stereo unspecified) | -13.13 |
| `O=C(c1cccn1Cc1cccs1)N1CCCC1Cn1cccn1` (stereo unspecified) | -13.94 |
| `Cc1ccc(C(=O)N2CCCC(C(=O)N3CCCCC3)C2)c(O)c1` (stereo unspecified) | 2.88 |
| `COCc1nc2cc(NCc3nc(C)cs3)ccc2o1` | 18.77 |
| `Cc1cccc(CN2CCc3ncnc(C)c3CC2)n1.O=C(O)C(F)(F)F` | 0.4677 |
| `CCc1n[nH]c(C2CN(C(=O)c3cnns3)CCO2)n1` (stereo unspecified) | -1.562 & -16.81 & -9.344 |
| `Cc1ccc(CC(=O)N2Cc3nccn3CC(Cn3cccn3)C2)cc1` (stereo unspecified) | 0.4677 |
| `OC(CN1CCC(c2ccn[nH]2)CC1)c1cccc(F)c1` (stereo unspecified) | 0.08224 |
| `CCNC(=O)CN(CC)Cc1nc2c(F)cccc2n1CC` | 2.781 |
| `[H][C@]12CC[C@]([H])(CN(C(=O)CCn3cccn3)C1)N(Cc1ccccn1)C2=O` | -1.765 |
| `O=C(O)C(F)(F)F.O=C(O)C(F)(F)F.[H][C@@]12OCCN(Cc3csc(C)n3)[C@@]1([H])CC[C@@H]2OCc1cccnc1` | -0.1238 |
| `[H][C@@]12OCCN(C(=O)C3CCOCC3)[C@@]1([H])CC[C@H]2OCC(=O)N(C)C` | 10.15 |
| `Cc1cc(CN(C)C(=O)NC2CCN(c3ncccn3)CC2)no1` | -0.3641 |
| `Cc1ncsc1CNC(=O)N1CCN(Cc2ccccc2)CC1C` (stereo unspecified) | 5.151 |
| `Cc1ccc(CCC(=O)N2CCCC(c3cc(C(N)=O)[nH]n3)C2)cc1` (stereo unspecified) | 0.8371 |
| `CN(C)CCNC(=O)CNC(=O)N1CCc2c([nH]c3ccc(Cl)cc23)C1` | -20.35 & 10.53 & -15.21 |
| `Cc1ccc(N2CCOC(C)(C(=O)N(C)C)C2)nn1` (stereo unspecified) | 9.116 |
| `Cc1ccc(C)c(S(=O)(=O)NC(=O)c2ccc(C)[nH]c2=O)c1` | 9.187 |
| `CCN1CCC(N2CCN(c3cc(-c4nc(C)no4)ccn3)CC2)CC1` | 4.459 |
| `CC(=O)N1CCC(Cc2cnc(C(=O)N3CCCC3)cn2)C1` (stereo unspecified) | -7.973 |
| `Cc1noc(C)c1C[S+]([O-])Cc1cn2cccc(C)c2n1` (stereo unspecified) | -10.04 |
| `[H][C@@]12C[C@H](C(=O)N(C)C)[C@@]([H])(CN(S(=O)(=O)CC(C)C)C1)O2` | 9.879 |
| `O=C(Nc1ccc(OC2CCCC2)cc1)C1CCCN1c1nccs1` (stereo unspecified) | 12.34 |
| `CCc1noc(-c2cccc(NC(=O)C(C)(C)C)c2)n1` | -7.846 |
| `CC(C)CNC(=O)c1ccc(NC(=O)NC(C)C)cc1Cl` | -13.72 |
| `CC(C)Oc1ccc2c(NC(=O)[C@H](C)O)nn(CC(F)(F)F)c2c1` | -22.23 & -11.46 |
| `Cc1cc(C)n(CCC(=O)N2CCCC(c3cc(C(N)=O)[nH]n3)C2)n1` (stereo unspecified) | -1.61 |
| `[H][C@]12C[C@H](C(=O)NCC3CC3)N(C(C)C)[C@@]1([H])CN(Cc1ccco1)C2` | -2.708 |

Once more, the final 5:

structure	effect
CCc1noc(-c2cccc(NC(=O)C(C)(C)C)c2)n1	-7.846
CC(C)CNC(=O)c1ccc(NC(=O)NC(C)C)cc1Cl	-13.72
CC(C)Oc1ccc2c(NC(=O)[C@H](C)O)nn(CC(F)(F)F)c2c1	-22.23 & -11.46
Cc1cc(C)n(CCC(=O)N2CCCC(c3cc(C(N)=O)[nH]n3)C2)n1 (stereo unspecified)	-1.61
[H][C@]12C[C@H](C(=O)NCC3CC3)N(C(C)C)[C@@]1([H])CN(Cc1ccco1)C2	-2.708